PubChem BioAssay AID493246, Drosophila RNAi Screening Center | 2011

- Screen: 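Identify essential fly genes by loss of cell viability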 (primary screen)
- Cell system: Drosophila Kc and S2R+ cells
- Knock-down reagent: long dsRNA against Drosophila genes
- Detection: 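Cell number per well after knock-down, printed as raw plate values; calls were based on per-plate z-scores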
- Direction: Kc cell number and S2R+ cell number: higher = more cells remaining
- Call rule: 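Active when the per-plate z-score of cell number is 3 or more in the direction of fewer cells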
The screen tested about 21,000 reagents; this is an unselected part of those that have a named target and a result. In the full data, 429 (2%) are marked active. 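Values are raw and not normalised between plates; calls rest on per-plate z-scores that were not deposited.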 A number with no mark means an inactive call. Names joined by + are all predicted targets of the reagent. Reagent sequences are not shown. The record does not give: the amount of reagent, the time to read-out.

predicted target,DRSC id,"Kc cell number, rep 1","Kc cell number, rep 2","S2R+ cell number, rep 1","S2R+ cell number, rep 2"
CG31674,DRSC03208,1.73e6,1.87e6,1.45e6,4.59e5
CG32302,DRSC08340,1.46e6,1.31e6,1.02e6,1.29e6
Apoltp (Apolipoprotein lipid transfer particle),DRSC02508,1.29e6,1.32e6,1.17e6,1.23e6
CG33502 + CG32857 + CG32500,DRSC20817,1.37e6,1.73e6,1.13e6,1.18e6
CG33502 + CG32857 + CG32500,DRSC21038,1.65e6,1.51e6,1.04e6,1.14e6
CG17050 (retired record),DRSC06651,1.58e6,1.48e6,1.22e6,1.28e6
mRpS25 (mitochondrial ribosomal protein S25),DRSC19598,1.69e6,1.76e6,1.04e6,1.27e6
side (sidestep),DRSC14523,1.30e6,1.24e6,1.04e6,1.10e6
side (sidestep),DRSC14716,1.50e6,1.57e6,1.11e6,1.15e6
side (sidestep),DRSC14717,1.53e6,1.59e6,1.08e6,1.15e6
side (sidestep),DRSC14718,1.48e6,1.60e6,1.09e6,1.18e6
side (sidestep),DRSC14721,1.53e6,1.61e6,1.10e6,1.21e6
RPA3 (Replication protein A3),DRSC19658,1.56e6,1.56e6,1.01e6,1.11e6
Acbp2 (Acyl-CoA binding protein 2),DRSC11141,1.60e6,1.43e6,1.10e6,1.21e6
ubl (ubiquitin like),DRSC04998,1.68e6,1.71e6,1.11e6,1.29e6
CG34409,DRSC14577,1.41e6,1.45e6,1.28e6,1.32e6
Dhps (Deoxyhypusine synthase),DRSC10948,1.72e6,1.56e6,1.16e6,1.15e6
CG9698,DRSC16539,1.72e6,1.82e6,1.01e6,1.15e6
CG14232,DRSC19588,1.57e6,1.68e6,1.04e6,1.13e6
Mpcp1,DRSC07337,1.63e6,1.73e6,1.26e6,1.43e6
Mau2,DRSC15550,1.58e6,1.57e6,1.23e6,1.31e6
lectin-21Cb,DRSC00355,1.54e6,1.58e6,1.06e6,1.15e6
Met75Ca + Met75Cb,DRSC09549,1.72e6,1.81e6,1.19e6,1.38e6
Met75Ca + Met75Cb,DRSC11221,1.33e6,1.56e6,1.41e6,1.47e6
msd1 (mitotic spindle density 1),DRSC08383,1.37e6,1.37e6,9.87e5,1.23e6
CG5274,DRSC11774,1.45e6,1.48e6,1.28e6,1.32e6
CG30371,DRSC06835,1.44e6,1.61e6,1.22e6,1.37e6
Traf6 (TNF-receptor-associated factor 6),DRSC18725,1.62e6,1.63e6,1.07e6,1.22e6
Caper,DRSC02137,1.17e6,1.33e6,4.15e5,5.54e5
WASp,DRSC15032,1.73e6,1.87e6,1.09e6,1.21e6
Fpps (Farnesyl pyrophosphate synthase),DRSC07429,1.23e6,1.35e6,1.07e6,9.28e5
qsm (quasimodo),DRSC05896,6.83e5,,7.92e5,
qsm (quasimodo),DRSC06393,1.61e6,1.48e6,1.01e6,1.31e6
CG14207,DRSC19562,1.65e6,1.69e6,1.04e6,1.23e6
CG14207,DRSC19563,1.70e6,1.66e6,1.10e6,1.33e6
CG42552 (retired record),DRSC11512,1.51e6,1.62e6,1.20e6,1.35e6
CG1571,DRSC18068,1.72e6,1.70e6,1.10e6,1.22e6
PrBP (Prenyl-binding protein),DRSC03189,1.54e6,1.57e6,1.26e6,1.40e6
CG34315 + Orc3,DRSC07642,1.08e6,1.41e6,1.06e6,1.18e6
mei-P22 (meiotic P22),DRSC11366,1.57e6,1.44e6,1.05e6,1.14e6

Part of the list above, showing only “Kc cell number, rep 2”.
side (sidestep) [DRSC14523]: 1.24e6
side (sidestep) [DRSC14716]: 1.57e6
side (sidestep) [DRSC14717]: 1.59e6
side (sidestep) [DRSC14718]: 1.60e6
side (sidestep) [DRSC14721]: 1.61e6
